{"source": "PubChem BioAssay AID1259254 (NCATS, 2017)", "test": "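Genome-wide screen for genes that prevent DNA re-replication in cancer cells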 (primary screen)", "cell system": "human HCT116 colorectal cancer cells", "knock-down reagent": "single siRNA against human genes", "time to read-out": "3 days", "measured": "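Nuclei stained with Hoechst and imaged; cell-cycle phase assigned by DNA content; G2 share scaled per plate, non-targeting siRNA 0%, GMNN siRNA 100%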", "direction": "G2 robust z-score and G2 cells, % of GMNN control: higher = more G2 cells, more excess DNA replication", "active means": "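An siRNA counts as active if its G2 robust z-score lies at least 5 MADs above the screen median; here such calls match roughly 38% of GMNN control or more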", "note": "Shown is an unselected part of about 59,000 reagents. Of all reagents, about 1,550 (2.6%) got an active call. 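G2 share is only a proxy for re-replication; each gene was hit by three separate siRNAs, and active genes were retested.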 Reagents against one gene are numbered here. Further read-outs or replicates are left out here. Not stated in the record: the amount of reagent."}
{"target": "REG3A", "reagent": 1, "G2 robust z-score": -0.441, "G2 cells, % of GMNN control": -0.137, "outcome": "inactive"}
{"target": "REG3A", "reagent": 2, "G2 robust z-score": -0.621, "G2 cells, % of GMNN control": -1.4, "outcome": "inactive"}
{"target": "REG3A", "reagent": 3, "G2 robust z-score": -0.654, "G2 cells, % of GMNN control": -1.64, "outcome": "inactive"}
{"target": "CDH18", "reagent": 1, "G2 robust z-score": -0.701, "G2 cells, % of GMNN control": -1.96, "outcome": "inactive"}
{"target": "CDH18", "reagent": 2, "G2 robust z-score": 1.86, "G2 cells, % of GMNN control": 16, "outcome": "inactive"}
{"target": "CDH18", "reagent": 3, "G2 robust z-score": -0.143, "G2 cells, % of GMNN control": 1.96, "outcome": "inactive"}
{"target": "FSAF1", "reagent": 1, "G2 robust z-score": 2.03, "G2 cells, % of GMNN control": 17.2, "outcome": "inactive"}
{"target": "FSAF1", "reagent": 2, "G2 robust z-score": -0.435, "G2 cells, % of GMNN control": -0.0938, "outcome": "inactive"}
{"target": "FSAF1", "reagent": 3, "G2 robust z-score": 0.252, "G2 cells, % of GMNN control": 4.74, "outcome": "inactive"}

Continued (3 carried over from the part before).
{"target": "FSAF1", "reagent": 1, "G2 robust z-score": 2.03, "G2 cells, % of GMNN control": 17.2, "outcome": "inactive"}
{"target": "FSAF1", "reagent": 2, "G2 robust z-score": -0.435, "G2 cells, % of GMNN control": -0.0938, "outcome": "inactive"}
{"target": "FSAF1", "reagent": 3, "G2 robust z-score": 0.252, "G2 cells, % of GMNN control": 4.74, "outcome": "inactive"}
{"target": "AP1S2", "reagent": 1, "G2 robust z-score": 1.33, "G2 cells, % of GMNN control": 12.3, "outcome": "inactive"}
{"target": "AP1S2", "reagent": 2, "G2 robust z-score": 0.15, "G2 cells, % of GMNN control": 4.02, "outcome": "inactive"}
{"target": "AP1S2", "reagent": 3, "G2 robust z-score": -0.431, "G2 cells, % of GMNN control": -0.0661, "outcome": "inactive"}
{"target": "PHKB", "reagent": 1, "G2 robust z-score": 1.06, "G2 cells, % of GMNN control": 10.4, "outcome": "inactive"}
{"target": "PHKB", "reagent": 2, "G2 robust z-score": 0.508, "G2 cells, % of GMNN control": 6.54, "outcome": "inactive"}
{"target": "PHKB", "reagent": 3, "G2 robust z-score": 1.49, "G2 cells, % of GMNN control": 13.4, "outcome": "inactive"}
{"target": "TIE1", "reagent": 1, "G2 robust z-score": -1.4, "G2 cells, % of GMNN control": -6.91, "outcome": "inactive"}
{"target": "TIE1", "reagent": 2, "G2 robust z-score": -1.06, "G2 cells, % of GMNN control": -4.48, "outcome": "inactive"}
{"target": "TIE1", "reagent": 3, "G2 robust z-score": -1.12, "G2 cells, % of GMNN control": -4.9, "outcome": "inactive"}
{"target": "ZDHHC7", "reagent": 1, "G2 robust z-score": 4.57, "G2 cells, % of GMNN control": 35.1, "outcome": "inactive"}
{"target": "ZDHHC7", "reagent": 2, "G2 robust z-score": 0.794, "G2 cells, % of GMNN control": 8.55, "outcome": "inactive"}
{"target": "ZDHHC7", "reagent": 3, "G2 robust z-score": 0.155, "G2 cells, % of GMNN control": 4.06, "outcome": "inactive"}
{"target": "SNTG2", "reagent": 1, "G2 robust z-score": -0.521, "G2 cells, % of GMNN control": -0.698, "outcome": "inactive"}
{"target": "SNTG2", "reagent": 2, "G2 robust z-score": 0.29, "G2 cells, % of GMNN control": 5.01, "outcome": "inactive"}
{"target": "SNTG2", "reagent": 3, "G2 robust z-score": -0.219, "G2 cells, % of GMNN control": 1.43, "outcome": "inactive"}
